Experimental data from patent publication US8367086B1, “Process and product for inhibiting or preventing bacterial infections” (S.S. Steiner, Inc., priority 2004, dated 2013).

Key:
Format in all cases: cell-based
S. salivarius = assay: paper disc diffusion susceptibility method; conditions: ciprofloxacin 5 μg on disc
From the text: (§1) The first test method to be applied was the paper disc diffusion susceptibility method. In this method a filter paper disc impregnated with a chemical is placed on agar, and the chemical will diffuse from the disc into the agar. If an organism is placed on the agar, it will not grow in the area around the disc if it is susceptible to the chemical. This area of no growth around the disc is known as the zone of inhibition. This disc diffusion method for antibiotic susceptibility is known as the Kirby-Bauer method. In testing the effectiveness of various antibiotics, all factors, e.g., the agar utilized, the depth of the agar, the amount of organism used, and incubation conditions, are maintained constant for the various organisms and antibiotics being tested. […] The size of the zone of inhibition of the particular antimicrobial substance may also be influenced by the diffusion capability of that substance.
(§2) In performing the disc diffusion method tests, a bacterial suspension having an inoculum density of approximately 1×10^8 CFU/ml (colony forming units) was added to 10 ml trypticase soy agar at 46° C. It was mixed thoroughly by vortexing and then poured into a plastic Petri dish. After hardening of the agar, filter paper discs (φ7 mm.) made from Whatman filter paper No. 1 that had been impregnated by the manufacturer, Becton Dickinson, Inc., with the suitable antibiotic, were placed on the agar. In this series of tests the ability of each antibiotic per se to control the growth of the bacteria was measured.
(§3) Another series of agar containing Petri dishes was then prepared using the same bacteria and density thereof as had been prepared for the prior test series. However, here hop compounds were also present in the agar. The hop extract, either lupulone, humulone or xanthohumol, was dissolved in ethanol. While certain of the hop components are only slightly soluble in water, they are very soluble in ethanol. An ethanol control was prepared in the same way.
(§4) The size of the inhibition zones was measured to the nearest mm.
(§5) The concentration of β-acid and xanthohumol is set forth in μg/ml. The zone of inhibition was measured in centimeters. […]

B. subtilis = assay: paper disc diffusion susceptibility method; conditions: ciprofloxacin 5 μg on disc
From the text: as §1, §2, §3, §4, §5

B. megaterium = assay: paper disc diffusion susceptibility method; conditions: ciprofloxacin 5 μg on disc
From the text: as §1, §2, §3, §4, §5

[1] = test system: Staphlococcus saprophyticus; assay: paper disc diffusion susceptibility (Kirby-Bauer) method; conditions: S. saprophyticus, ciprofloxacin 5 μg on disc
From the text: as §1, §2, §3, §4, §5

O=C(O)c1cn(C2CC2)c2cc(N3CCNCC3)c(F)cc2c1=O [ciprofloxacin, 1-cyclopropyl-6-fluoro-1,4-dihyro-4-oxo-7-(1-piperaznyl)-3-quinolinecarboxylic acid]
zone of inhibition, β-acid Avg (S. salivarius; β-acid 0 μg/ml): 0.7 centimeters | zone of inhibition, β-acid Exp #1 (S. salivarius; β-acid 0 μg/ml): 0.6 centimeters | zone of inhibition, β-acid Exp #2 (S. salivarius; β-acid 0 μg/ml): 0.8 centimeters | zone of inhibition, β-acid Avg (S. salivarius; β-acid 30 μg/ml): 1.2 centimeters | zone of inhibition, β-acid Exp #1 (S. salivarius; β-acid 30 μg/ml): 1.3 centimeters | zone of inhibition, β-acid Exp #2 (S. salivarius; β-acid 30 μg/ml): 1.1 centimeters | zone of inhibition, β-acid Avg (B. subtilis; β-acid 0 μg/ml): 1.05 centimeters | zone of inhibition, β-acid Exp #1 (B. subtilis; β-acid 0 μg/ml): 1.1 centimeters | zone of inhibition, β-acid Exp #2 (B. subtilis; β-acid 0 μg/ml): 0.9 centimeters | zone of inhibition, β-acid Avg (B. subtilis; β-acid 3 μg/ml): 1.45 centimeters | zone of inhibition, β-acid Exp #1 (B. subtilis; β-acid 3 μg/ml): 1.5 centimeters | zone of inhibition, β-acid Exp #2 (B. subtilis; β-acid 3 μg/ml): 1.4 centimeters | zone of inhibition, β-acid Avg (B. megaterium; β-acid 0 μg/ml): 0.85 centimeters | zone of inhibition, β-acid Exp #1 (B. megaterium; β-acid 0 μg/ml): 1.0 centimeters | zone of inhibition, β-acid Exp #2 (B. megaterium; β-acid 0 μg/ml): 0.7 centimeters | zone of inhibition, β-acid Avg (B. megaterium; β-acid 3 μg/ml): 1.25 centimeters | zone of inhibition, β-acid Exp #1 (B. megaterium; β-acid 3 μg/ml): 1.5 centimeters | zone of inhibition, β-acid Exp #2 (B. megaterium; β-acid 3 μg/ml): 1.0 centimeters | zone of inhibition, β-acid Avg ([1]; β-acid 0 μg/ml): 1.0 centimeters | zone of inhibition, β-acid Exp #1 ([1]; β-acid 0 μg/ml): 1.0 centimeters | zone of inhibition, β-acid Exp #2 ([1]; β-acid 0 μg/ml): 1.0 centimeters | zone of inhibition, β-acid Avg ([1]; β-acid 3 μg/ml): 1.4 centimeters | zone of inhibition, β-acid Exp #1 ([1]; β-acid 3 μg/ml): 1.5 centimeters | zone of inhibition, β-acid Exp #2 ([1]; β-acid 3 μg/ml): 1.3 centimeters
